Among the data in the supplement of paper PMC6411743 are NP40-soluble protein abundance values, retold here.

Chains of the proteins cited; added tags and fusions are not shown. Lines headed by an entry give the natural chain unless they say otherwise; changes in a name come on top.
UniProt Q9BSD7: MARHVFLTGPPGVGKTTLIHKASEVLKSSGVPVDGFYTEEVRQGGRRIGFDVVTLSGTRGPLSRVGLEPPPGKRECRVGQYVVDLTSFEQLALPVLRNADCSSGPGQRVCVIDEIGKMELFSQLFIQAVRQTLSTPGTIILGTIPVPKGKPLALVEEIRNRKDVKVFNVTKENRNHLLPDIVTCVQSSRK
UniProt Q9BWT3: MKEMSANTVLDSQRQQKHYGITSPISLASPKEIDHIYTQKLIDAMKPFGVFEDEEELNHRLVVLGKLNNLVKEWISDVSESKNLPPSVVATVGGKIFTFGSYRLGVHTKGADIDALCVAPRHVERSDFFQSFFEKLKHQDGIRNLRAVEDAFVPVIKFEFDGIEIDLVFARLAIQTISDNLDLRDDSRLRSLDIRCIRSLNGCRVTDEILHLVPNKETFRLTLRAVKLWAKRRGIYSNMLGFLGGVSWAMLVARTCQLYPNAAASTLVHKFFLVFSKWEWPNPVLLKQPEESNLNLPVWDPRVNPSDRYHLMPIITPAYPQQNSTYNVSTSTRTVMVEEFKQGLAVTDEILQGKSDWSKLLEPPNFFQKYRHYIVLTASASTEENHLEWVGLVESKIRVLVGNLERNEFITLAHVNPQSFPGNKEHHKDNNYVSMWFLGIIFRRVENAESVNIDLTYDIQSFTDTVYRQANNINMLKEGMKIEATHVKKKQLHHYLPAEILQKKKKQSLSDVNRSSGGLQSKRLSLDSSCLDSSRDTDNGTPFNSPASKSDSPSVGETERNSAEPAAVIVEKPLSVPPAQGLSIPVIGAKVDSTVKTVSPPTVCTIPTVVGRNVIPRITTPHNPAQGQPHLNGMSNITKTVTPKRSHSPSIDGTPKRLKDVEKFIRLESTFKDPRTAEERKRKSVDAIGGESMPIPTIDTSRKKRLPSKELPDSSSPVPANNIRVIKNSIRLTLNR
UniProt Q9BZ95: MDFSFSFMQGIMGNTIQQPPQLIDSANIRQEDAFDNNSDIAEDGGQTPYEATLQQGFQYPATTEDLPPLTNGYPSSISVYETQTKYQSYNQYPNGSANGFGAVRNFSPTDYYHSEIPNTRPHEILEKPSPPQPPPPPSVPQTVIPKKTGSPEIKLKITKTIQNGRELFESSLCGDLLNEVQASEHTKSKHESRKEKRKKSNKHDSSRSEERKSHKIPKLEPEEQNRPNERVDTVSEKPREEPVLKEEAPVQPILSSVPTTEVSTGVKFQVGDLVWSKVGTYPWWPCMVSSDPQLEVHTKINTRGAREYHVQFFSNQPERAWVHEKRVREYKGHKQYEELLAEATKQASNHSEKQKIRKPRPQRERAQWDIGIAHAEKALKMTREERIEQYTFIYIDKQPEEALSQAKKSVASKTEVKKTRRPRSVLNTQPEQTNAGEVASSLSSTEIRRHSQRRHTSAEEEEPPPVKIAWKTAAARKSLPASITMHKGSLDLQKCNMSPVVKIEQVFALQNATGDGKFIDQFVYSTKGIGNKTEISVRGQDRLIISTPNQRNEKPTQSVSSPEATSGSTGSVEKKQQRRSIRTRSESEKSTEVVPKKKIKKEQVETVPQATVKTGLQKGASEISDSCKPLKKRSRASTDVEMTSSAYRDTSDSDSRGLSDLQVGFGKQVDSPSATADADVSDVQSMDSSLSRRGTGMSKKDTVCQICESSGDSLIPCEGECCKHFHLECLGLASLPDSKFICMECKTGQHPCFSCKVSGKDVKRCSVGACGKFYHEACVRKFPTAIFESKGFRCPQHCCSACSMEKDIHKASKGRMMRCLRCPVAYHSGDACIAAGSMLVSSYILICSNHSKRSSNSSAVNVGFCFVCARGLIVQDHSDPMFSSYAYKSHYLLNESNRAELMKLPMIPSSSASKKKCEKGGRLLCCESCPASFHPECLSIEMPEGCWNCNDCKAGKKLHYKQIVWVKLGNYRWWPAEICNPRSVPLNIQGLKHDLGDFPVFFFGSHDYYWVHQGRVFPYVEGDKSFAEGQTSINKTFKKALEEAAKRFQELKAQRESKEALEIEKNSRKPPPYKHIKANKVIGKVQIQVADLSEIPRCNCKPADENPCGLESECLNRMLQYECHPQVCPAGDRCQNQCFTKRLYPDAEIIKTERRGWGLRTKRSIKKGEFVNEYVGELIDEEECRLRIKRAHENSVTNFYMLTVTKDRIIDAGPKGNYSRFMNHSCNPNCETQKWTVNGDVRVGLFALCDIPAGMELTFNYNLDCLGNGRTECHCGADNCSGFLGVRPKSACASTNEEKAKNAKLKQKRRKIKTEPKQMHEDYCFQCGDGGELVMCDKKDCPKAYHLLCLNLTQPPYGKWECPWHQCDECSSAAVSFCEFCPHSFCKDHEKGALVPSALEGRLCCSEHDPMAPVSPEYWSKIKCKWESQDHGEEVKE
UniProt Q99504: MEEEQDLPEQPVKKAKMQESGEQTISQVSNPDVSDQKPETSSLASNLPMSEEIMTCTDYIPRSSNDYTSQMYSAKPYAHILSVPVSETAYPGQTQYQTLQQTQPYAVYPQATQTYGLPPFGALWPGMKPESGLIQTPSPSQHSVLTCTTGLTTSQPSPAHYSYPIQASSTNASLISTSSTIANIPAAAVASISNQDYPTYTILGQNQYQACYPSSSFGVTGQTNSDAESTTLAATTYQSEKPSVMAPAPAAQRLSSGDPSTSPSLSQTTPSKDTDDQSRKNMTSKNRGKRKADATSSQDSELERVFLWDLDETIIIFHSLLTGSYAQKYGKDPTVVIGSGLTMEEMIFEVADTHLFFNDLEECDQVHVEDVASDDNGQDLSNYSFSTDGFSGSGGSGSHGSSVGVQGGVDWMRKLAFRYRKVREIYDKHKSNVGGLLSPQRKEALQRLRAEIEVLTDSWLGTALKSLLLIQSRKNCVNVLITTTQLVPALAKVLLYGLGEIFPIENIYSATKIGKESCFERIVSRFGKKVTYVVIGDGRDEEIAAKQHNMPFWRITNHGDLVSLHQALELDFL

± gives the standard deviation of the averaged measurements. The list shows a part of the results.

Compound in this test: Nc1nc2c(ncn2[C@@H]2O[C@H](COP(=O)(O)OP(=O)(O)OP(=O)(O)O)[C@@H](O)[C@H]2O)c(=O)[nH]1 [guanosine triphosphate]
As to the kind of experiment: NP40-soluble protein abundance relative to vehicle (solubility fold change) (ratio); higher = more soluble protein in presence of GTP. The procedure: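 Solubility proteome profiling in Jurkat crude lysate. Lysate was treated with Mg-GTP (0.1-10 mM) for 10 min at room temperature and 3 min at 37 °C, then solubilised with 0.8% NP40 and benzonase, followed by ultracentrifugation. Proteins were quantified by TMT10 LC-MS/MS; the value is the NP40-soluble abundance relative to the NP40-processed vehicle, from 3 independent experiments.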

Turning to UniProt Q9BSD7, the NP40-soluble protein abundance was 1.02 ± 0.055 (concentration: 0.1mM); 1.01 ± 0.024 (concentration: 0.5mM); 0.99 ± 0.023 (concentration: 1mM); 0.962 ± 0.035 (concentration: 2mM); 0.985 ± 0.074 (concentration: 4mM); 0.974 ± 0.062 (concentration: 6mM). Moreover, the NP40-soluble protein abundance by setting is: (concentration: 8mM) 0.966 ± 0.032; (concentration: 10mM) 0.9308 ± 0.0056.
PAPOLG (UniProt Q9BWT3): the NP40-soluble protein abundance reads like this: (concentration: 0.1mM) 1.055 ± 0.0095; (concentration: 0.5mM) 1.05 ± 0.089; (concentration: 1mM) 1.06 ± 0.021; (concentration: 2mM) 1.11 ± 0.093; (concentration: 4mM) 1.17 ± 0.11; (concentration: 6mM) 1.16 ± 0.11. Also, the NP40-soluble protein abundance runs as follows: (concentration: 8mM) 1.19 ± 0.17; (concentration: 10mM) 1.16 ± 0.12.
Turning to UniProt Q9BZ95 and related entries, the NP40-soluble protein abundance (concentration: 0.1mM) was 1.16 ± 0.028; the NP40-soluble protein abundance (concentration: 0.5mM) stood at 1.11 ± 0.043; the NP40-soluble protein abundance (concentration: 1mM) was determined as 1.14 ± 0.048; the NP40-soluble protein abundance (concentration: 2mM) came to 1.2 ± 0.046; the NP40-soluble protein abundance (concentration: 4mM) was 1.22 ± 0.041; the NP40-soluble protein abundance (concentration: 6mM) stood at 1.28 ± 0.079. The NP40-soluble protein abundance is 1.29 ± 0.081 (concentration: 8mM) and 1.25 ± 0.059 (concentration: 10mM).
For the target MRPL1 (UniProt Q9BYD6), the NP40-soluble protein abundance was 0.987 ± 0.016 (concentration: 0.1mM); 1.02 ± 0.079 (concentration: 0.5mM); 1.02 ± 0.061 (concentration: 1mM); 1.05 ± 0.12 (concentration: 2mM); 1.05 ± 0.14 (concentration: 4mM); 1.05 ± 0.11 (concentration: 6mM). Also, the NP40-soluble protein abundance by setting is: (concentration: 8mM) 0.995 ± 0.083; (concentration: 10mM) 0.965 ± 0.068.
For UniProt Q99504 and related entries, the NP40-soluble protein abundance (concentration: 0.1mM) is 1 ± 0.067; the NP40-soluble protein abundance (concentration: 0.5mM) worked out at 1.01 ± 0.024; the NP40-soluble protein abundance (concentration: 1mM) worked out at 0.982 ± 0.035; the NP40-soluble protein abundance (concentration: 2mM) came out at 0.969 ± 0.063; the NP40-soluble protein abundance (concentration: 4mM) stood at 0.949 ± 0.078; the NP40-soluble protein abundance (concentration: 6mM) came to 0.958 ± 0.03. Also, the NP40-soluble protein abundance (concentration: 8mM) worked out at 0.944 ± 0.053 and the NP40-soluble protein abundance (concentration: 10mM) was 0.929 ± 0.037.
